# Results as given in paper PMC7666139.
# Results are given in words; binding and its absence hold for the method and conditions named. For part of these data: Binding seen in cells or lysates may run through a third protein. Some entries that bind do so weakly or less than the wild type. Where a sequence is shown, tags or fusion partners need not be part of it.
# T1: 6xHis-MBP tagged HACS1-SH3 domain (human) (UniProt Q9NSI8)
# T1 sequence: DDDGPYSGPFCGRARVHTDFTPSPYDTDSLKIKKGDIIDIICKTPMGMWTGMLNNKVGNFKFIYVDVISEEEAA
# T2: PIRB array peptide … (mouse)
# T2 sequence (peptide): DVTYAQLCSRTL
# Columns and labels:
# [1] = biological target: T1, 6xHis-MBP tagged HACS1-SH3 domain (human); experiment: pull-down; 10 µg purified 6xHis-MBP-HACS1 SH3 domain or 6xHis-MBP mixed with 500 µg mouse bone marrow or splenocyte lysate, overnight with Nickel-NTA resin; washed and eluted with TBST pH 7.4; PIRB detected by Western blot; only the target purified
# [2] = biological target: 6xHis-tagged HACS1 SH3 domain (human) (UniProt Q9NSI8); experiment: NMR titration; 1H,15N-HSQC of 15N-labeled HACS1 SH3 domain without and with a ten-fold excess of PIRB-GB1, matched NMR buffer, 700 MHz; amide chemical shift perturbations; both purified
# [3] = biological target: T2, PIRB array peptide … (mouse); experiment: peptide or protein array; 12-mer peptides synthesized on a cellulose membrane (SPOT); probed with 5 µM HACS1 SH3 protein in PBST pH 7.4; detected with HRP-conjugated anti-6xHis antibody, chemiluminescence; both purified
binder,measurement,setting,value
"Paired immunoglobulin receptor B (PIRB) (receptor, UniProt P97484 25-841) SLPKPILRVQPDSVVSRRTKVTFLCEETIGANEYRLYKDGKLYKTVTKNKQKPENKAEFSFSNVDLSNAGQYRCSYSTQYKSSGYSDLLELVVTGHYWTPSLLAQASPVVTSGGYVTLQCESWHNDHKFILTVEGPQKLSWTQDSQYNYSTRKYHALFSVGPVTPNQRWICRCYSYDRNRPYVWSPPSESVELLVSGNLQKPTIKAEPGSVITSKRAMTIWCQGNLDAEVYFLHNEKSQKTQSTQTLQEPGNKGKFFIPSVTLQHAGQYRCYCYGSAGWSQPSDTLELVVTGIYEYYEPRLSVLPSPVVTAGGNMTLHCASDFPYDKFILTKEDKKFGNSLDTEHISSSGQYRALFIIGPTTPTHTGAFRCYGYYKNAPQLWSVPSALQQILISGLSKKPSLLTHQGHILDPGMTLTLQCFSDINYDRFALHKVGGADIMQHSSQQTDTGFSVANFTLGYVSSSTGGQYRCYGAHNLSSEWSASSEPLDILITGQLPLTPSLSVQPNHTVHSGETVSLLCWSMDSVDTFILSKEGSAQQPLRLKSKSHDQQSQAEFSMSAVTSHLSGTYRCYGAQDSSFYLLSSASAPVELTVSGPIETSTPPPTMSMPLGGLHMYLKALIGVSVAFILFLFIFIFILLRRRHRGKFRKDVQKEKDLQLSSGAEEPITRKGELQKRPNPAAATQEESLYASVEDMQTEDGVELNSWTPPEEDPQGETYAQVKPSRLRKAGHVSPSVMSREQLNTEYEQAEEGQGANNQAAESGESQDVTYAQLCSRTLRQGAAASPLSQAGEAPEEPSVYATLAAARPEAVPKDMEQ",binding,[1],binds
"LCSRTLRQGAAAS (peptide, UniProt P97484 797-809) [murine PIRB-GB1 fusion protein]",binding,[2],binds
"6xHis-MBP tagged HACS1-SH3 domain (domain or fragment, UniProt Q9NSI8 155-228) DDDGPYSGPFCGRARVHTDFTPSPYDTDSLKIKKGDIIDIICKTPMGMWTGMLNNKVGNFKFIYVDVISEEEAA",binding,[3],binds weakly
